Laboratory results from doi:10.1101/2025.01.15.633155.
Results are given in words; binding and its absence hold for the method and conditions named. For some assays here: In cells and extracts the contact can be indirect. Some binding calls cover weakened binding; strength is not graded here. For some assays here: Sequences can lack the tags named with a protein. Blank lines part the entries; values can stand above or below the binder they belong to.

Chains of the proteins cited; added tags and fusions are not shown. Lines headed by an entry give the natural chain unless they say otherwise; changes in a name come on top. Residues count along the entry.
UniProt Q9LJF3: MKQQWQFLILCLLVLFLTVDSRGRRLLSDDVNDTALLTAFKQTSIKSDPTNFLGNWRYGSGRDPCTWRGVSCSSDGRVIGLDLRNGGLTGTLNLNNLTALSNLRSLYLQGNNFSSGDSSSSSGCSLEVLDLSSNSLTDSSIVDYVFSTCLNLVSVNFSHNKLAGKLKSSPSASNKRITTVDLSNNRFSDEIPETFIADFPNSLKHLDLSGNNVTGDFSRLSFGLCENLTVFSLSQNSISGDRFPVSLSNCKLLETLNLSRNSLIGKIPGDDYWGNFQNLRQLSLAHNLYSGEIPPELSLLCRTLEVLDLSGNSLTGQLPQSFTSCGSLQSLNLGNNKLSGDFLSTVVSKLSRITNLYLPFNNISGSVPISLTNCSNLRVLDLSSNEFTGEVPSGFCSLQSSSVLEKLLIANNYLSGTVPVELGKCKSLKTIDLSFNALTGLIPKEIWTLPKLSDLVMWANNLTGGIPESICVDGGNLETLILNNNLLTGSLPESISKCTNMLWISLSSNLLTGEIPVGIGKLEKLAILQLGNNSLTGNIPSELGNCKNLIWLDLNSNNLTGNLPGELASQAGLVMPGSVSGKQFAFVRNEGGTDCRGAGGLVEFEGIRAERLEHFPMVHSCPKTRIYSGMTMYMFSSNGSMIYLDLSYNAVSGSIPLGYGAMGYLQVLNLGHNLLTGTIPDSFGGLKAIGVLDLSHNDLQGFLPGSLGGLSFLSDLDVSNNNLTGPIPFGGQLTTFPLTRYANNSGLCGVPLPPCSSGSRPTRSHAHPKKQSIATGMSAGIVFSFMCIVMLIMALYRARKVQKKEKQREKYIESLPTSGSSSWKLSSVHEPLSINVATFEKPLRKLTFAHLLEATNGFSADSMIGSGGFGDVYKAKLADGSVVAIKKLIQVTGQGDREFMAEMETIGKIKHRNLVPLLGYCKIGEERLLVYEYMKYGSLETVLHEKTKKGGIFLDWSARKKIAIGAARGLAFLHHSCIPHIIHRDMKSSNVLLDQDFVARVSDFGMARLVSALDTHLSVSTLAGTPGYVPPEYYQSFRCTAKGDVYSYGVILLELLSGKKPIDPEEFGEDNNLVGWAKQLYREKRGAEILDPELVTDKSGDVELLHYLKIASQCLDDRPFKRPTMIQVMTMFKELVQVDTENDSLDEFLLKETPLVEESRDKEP
BRL3, BiFC fusion: residues 24-1164 of Q9LJF3
BRL3 kinase domain (amino acids 797–1,164), yeast two-hybrid fusion: residues 797-1164 of Q9LJF3

What was measured:
[1] = target: BRL3 kinase domain (amino acids 797–1,164), yeast two-hybrid fusion (Arabidopsis thaliana) (UniProt Q9LJF3); assay: two-hybrid
[2] = target: BRL3–mVenus (Arabidopsis thaliana) (UniProt Q9LJF3); assay: FRET or BRET
[3] = target: BRI1-LIKE 3 (BRL3)–GFP (Arabidopsis thaliana) (UniProt Q9LJF3); assay: co-IP
[4] = target: BRL3, BiFC fusion (Arabidopsis thaliana) (UniProt Q9LJF3); assay: split reporter

B4: ERD14 full length, BiFC fusion (protein, UniProt P42763 1-185)
chain: MAEEIKNVPEQEVPKVATEESSAEVTDRGLFDFLGKKKDETKPEETPIASEFEQKVHISEPEPEVKHESLLEKLHRSDSSSSSSSEEEGSDGEKRKKKKEKKKPTTEVEVKEEEKKGFMEKLKEKLPGHKKPEDGSAVAAAPVVVPPPVEEAHPVEKKGILEKIKEKLPGYHPKTTVEEEKKDKE
- binding [4]: binds

B5: ERD14 full length, yeast two-hybrid fusion (protein, UniProt P42763 1-185)
chain: MAEEIKNVPEQEVPKVATEESSAEVTDRGLFDFLGKKKDETKPEETPIASEFEQKVHISEPEPEVKHESLLEKLHRSDSSSSSSSEEEGSDGEKRKKKKEKKKPTTEVEVKEEEKKGFMEKLKEKLPGHKKPEDGSAVAAAPVVVPPPVEEAHPVEKKGILEKIKEKLPGYHPKTTVEEEKKDKE
- binding [1]: binds

B6: CLV1 (receptor, UniProt Q9SYQ8 25-980)
chain: YTDMEVLLNLKSSMIGPKGHGLHDWIHSSSPDAHCSFSGVSCDDDARVISLNVSFTPLFGTISPEIGMLTHLVNLTLAANNFTGELPLEMKSLTSLKVLNISNNGNLTGTFPGEILKAMVDLEVLDTYNNNFNGKLPPEMSELKKLKYLSFGGNFFSGEIPESYGDIQSLEYLGLNGAGLSGKSPAFLSRLKNLREMYIGYYNSYTGGVPPEFGGLTKLEILDMASCTLTGEIPTSLSNLKHLHTLFLHINNLTGHIPPELSGLVSLKSLDLSINQLTGEIPQSFINLGNITLINLFRNNLYGQIPEAIGELPKLEVFEVWENNFTLQLPANLGRNGNLIKLDVSDNHLTGLIPKDLCRGEKLEMLILSNNFFFGPIPEELGKCKSLTKIRIVKNLLNGTVPAGLFNLPLVTIIELTDNFFSGELPVTMSGDVLDQIYLSNNWFSGEIPPAIGNFPNLQTLFLDRNRFRGNIPREIFELKHLSRINTSANNITGGIPDSISRCSTLISVDLSRNRINGEIPKGINNVKNLGTLNISGNQLTGSIPTGIGNMTSLTTLDLSFNDLSGRVPLGGQFLVFNETSFAGNTYLCLPHRVSCPTRPGQTSDHNHTALFSPSRIVITVIAAITGLILISVAIRQMNKKKNQKSLAWKLTAFQKLDFKSEDVLECLKEENIIGKGGAGIVYRGSMPNNVDVAIKRLVGRGTGRSDHGFTAEIQTLGRIRHRHIVRLLGYVANKDTNLLLYEYMPNGSLGELLHGSKGGHLQWETRHRVAVEAAKGLCYLHHDCSPLILHRDVKSNNILLDSDFEAHVADFGLAKFLVDGAASECMSSIAGSYGYIAPEYAYTLKVDEKSDVYSFGVVLLELIAGKKPVGEFGEGVDIVRWVRNTEEEITQPSDAAIVVAIVDPRLTGYPLTSVIHVFKIAMMCVEEEAAARPTMREVVHMLTNPPKSVANLIAF
- binding [2]: no binding

B7: BRI1 KINASE INHIBITOR 1 (BKI1), BiFC fusion (protein, UniProt Q9FMZ0 1-337)
chain: METNLQQVKNSSQTFSEKQNPKQEASPSPISSTCSSPSHDFSFTISLQPLSSSSKHISPTLRSPSKTTSSYQQTDPFAVDLSPADEIFFHGHLLPLHLLSHLPVSPRTSTGSYNDGFTLPVKDILPDQPTNNNNNTENAITNISTEAKDDNTEDKAEGEIRVKTKPIKSFSLFGLSKWRKGFESNEREQEQQQQKIKKPMSLDLSHAVKKYIRMLFQKRGNGTQFWNRRQTSSYSFSSSLMGPNGNSKTMINGSYNKRDLIRGRRGELFSAPASMRTSPTNSGHLRVSTAGLSSSSGSTSSSSSDSTMEELQAAIQAAIAHCKNSSAVDRDDKVKDS
- binding [4]: no binding

B8: BKI1 full length, yeast two-hybrid fusion (protein, UniProt Q9FMZ0 1-337)
chain: METNLQQVKNSSQTFSEKQNPKQEASPSPISSTCSSPSHDFSFTISLQPLSSSSKHISPTLRSPSKTTSSYQQTDPFAVDLSPADEIFFHGHLLPLHLLSHLPVSPRTSTGSYNDGFTLPVKDILPDQPTNNNNNTENAITNISTEAKDDNTEDKAEGEIRVKTKPIKSFSLFGLSKWRKGFESNEREQEQQQQKIKKPMSLDLSHAVKKYIRMLFQKRGNGTQFWNRRQTSSYSFSSSLMGPNGNSKTMINGSYNKRDLIRGRRGELFSAPASMRTSPTNSGHLRVSTAGLSSSSGSTSSSSSDSTMEELQAAIQAAIAHCKNSSAVDRDDKVKDS
- binding [1]: no binding

Continued, values first:

- binding [1]: binds
B1: ERD14^polyLys (amino acids 91–185), yeast two-hybrid fusion (domain or fragment, UniProt P42763 91-185)
chain: DGEKRKKKKEKKKPTTEVEVKEEEKKGFMEKLKEKLPGHKKPEDGSAVAAAPVVVPPPVEEAHPVEKKGILEKIKEKLPGYHPKTTVEEEKKDKE

- binding [2]: binds
B2: ERD14^polyLys–2xmCherry (domain or fragment, UniProt P42763 91-185)
chain: DGEKRKKKKEKKKPTTEVEVKEEEKKGFMEKLKEKLPGHKKPEDGSAVAAAPVVVPPPVEEAHPVEKKGILEKIKEKLPGYHPKTTVEEEKKDKE

- binding [3]: binds
B3: ERD14–3xHA (protein, UniProt P42763 1-185)
chain: MAEEIKNVPEQEVPKVATEESSAEVTDRGLFDFLGKKKDETKPEETPIASEFEQKVHISEPEPEVKHESLLEKLHRSDSSSSSSSEEEGSDGEKRKKKKEKKKPTTEVEVKEEEKKGFMEKLKEKLPGHKKPEDGSAVAAAPVVVPPPVEEAHPVEKKGILEKIKEKLPGYHPKTTVEEEKKDKE
